PubChem BioAssay AID1259405, NCATS, 2018
Shown is a random part of about 50,000 reagents. Of all reagents, about 4,000 (8%) got an active call. 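Mouse siRNA library applied to hamster cells; one well for each siRNA.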 A number with no mark means an inactive call. Reagents against one gene are numbered here.

Aim: 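Silenced genes that increase secreted GFP made by CHO cells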 (primary screen)
System: Chinese hamster CHO-K1 ovary cells with stable secreted eGFP expression
Reagent: single siRNA against mouse genes, 0.8 pmol siRNA per well (2 µl of 400 nM stock)
Time to read-out: 3 days
Detection: 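Per-well intracellular GFP measured by laser scanning cytometry, plus viability from ATP luminescence, each relative to plate median of non-targeting control wells, in %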
Reading the numbers: GFP, % of control: higher = more GFP per well, higher productivity; viability (ATP), % of control: higher = more viable cells (more ATP)
Hit rule: 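a knock-down is called active if GFP reaches 120% or more of non-targeting control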

| gene symbol | reagent | GFP, % of control | viability (ATP), % of control |
| --- | --- | --- | --- |
| Scgn (secretagogin, EF-hand calcium binding protein) | 1 | 130 (active) | 103 |
| Scgn (secretagogin, EF-hand calcium binding protein) | 2 | 96.7 | 81.8 |
| Clta (clathrin light chain A) | 1 | 162 (active) | 111 |
| Clta (clathrin light chain A) | 2 | 103 | 46.9 |
| Pyroxd1 (pyridine nucleotide-disulphide oxidoreductase domain 1) | 1 | 43.6 | 41.4 |
| Pyroxd1 (pyridine nucleotide-disulphide oxidoreductase domain 1) | 2 | 62.5 | 85 |
| Pyroxd1 (pyridine nucleotide-disulphide oxidoreductase domain 1) | 3 | 98.5 | 98.3 |
| Dnase1 (deoxyribonuclease I) | 1 | 59.5 | 55.1 |
| Dnase1 (deoxyribonuclease I) | 2 | 75.8 | 64 |
| Vmn1r69 (vomeronasal 1 receptor 69) | 1 | 72.5 | 28.2 |
| Vmn1r69 (vomeronasal 1 receptor 69) | 2 | 65.3 | 74.2 |
| Vmn1r69 (vomeronasal 1 receptor 69) | 3 | 74.1 | 74.7 |
| Sar1b (secretion associated Ras related GTPase 1B) | 1 | 85.7 | 58.5 |
| Sar1b (secretion associated Ras related GTPase 1B) | 2 | 86.1 | 79.2 |
| Sar1b (secretion associated Ras related GTPase 1B) | 3 | 48.4 | 59 |
| Cdh23 (cadherin related 23 (otocadherin)) | 1 | 88.8 | 95.7 |
| Cdh23 (cadherin related 23 (otocadherin)) | 2 | 67.2 | 75.3 |
| Cdh23 (cadherin related 23 (otocadherin)) | 3 | 75.6 | 60.9 |
| Aass (aminoadipate-semialdehyde synthase) | 1 | 41.5 | 30.3 |
| Aass (aminoadipate-semialdehyde synthase) | 2 | 65.8 | 53.7 |
| Aass (aminoadipate-semialdehyde synthase) | 3 | 75.6 | 82.3 |
| Tcstv7a (Tcstv family member 7A) | 1 | 99.8 | 75.6 |
| Tcstv7a (Tcstv family member 7A) | 2 | 82.7 | 67.3 |
| Tcstv7a (Tcstv family member 7A) | 3 | 68.8 | 78.1 |
| Zcchc7 (zinc finger, CCHC domain containing 7) | 1 | 92.8 | 85.6 |
| Zcchc7 (zinc finger, CCHC domain containing 7) | 2 | 80.6 | 34.1 |
| Zcchc7 (zinc finger, CCHC domain containing 7) | 3 | 55.7 | 58.4 |
| Zcchc7 (zinc finger, CCHC domain containing 7) | 4 | 72.6 | 64.3 |
| Zcchc7 (zinc finger, CCHC domain containing 7) | 5 | 112 | 67.1 |
| Zcchc7 (zinc finger, CCHC domain containing 7) | 6 | 74.1 | 101 |
| Cyp2e1 (cytochrome P450, family 2, subfamily e, polypeptide 1) | 1 | 84.3 | 90.2 |
| Cyp2e1 (cytochrome P450, family 2, subfamily e, polypeptide 1) | 2 | 68 | 59.7 |
| Cyp2e1 (cytochrome P450, family 2, subfamily e, polypeptide 1) | 3 | 69 | 83.3 |
| Tnfrsf9 (tumor necrosis factor receptor superfamily, member 9) | 1 | 86.2 | 90.5 |
| Tnfrsf9 (tumor necrosis factor receptor superfamily, member 9) | 2 | 71.4 | 63.6 |
| Tnfrsf9 (tumor necrosis factor receptor superfamily, member 9) | 3 | 81.7 | 69.4 |
| Or5b98 (olfactory receptor family 5 subfamily B member 98) | 1 | 67.3 | 56.2 |
| Or5b98 (olfactory receptor family 5 subfamily B member 98) | 2 | 78.1 | 82.9 |
| Or5b98 (olfactory receptor family 5 subfamily B member 98) | 3 | 148 (active) | 69.8 |
| Six3os1 (SIX homeobox 3, opposite strand 1) | 1 | 84 | 90.9 |
| Six3os1 (SIX homeobox 3, opposite strand 1) | 2 | 95.7 | 56.4 |
| Six3os1 (SIX homeobox 3, opposite strand 1) | 3 | 95.6 | 99.9 |
| Psmc3ip | 1 | 72.4 | 87.9 |
| Psmc3ip | 2 | 52.7 | 72.8 |
| Psmc3ip | 3 | 77.8 | 79.1 |
| D430018E03Rik (RIKEN cDNA D430018E03 gene) | 1 | 79.9 | 82.4 |
| D430018E03Rik (RIKEN cDNA D430018E03 gene) | 2 | 88.5 | 70.4 |
| D430018E03Rik (RIKEN cDNA D430018E03 gene) | 3 | 124 (active) | 87.6 |
| Or4a75 (olfactory receptor family 4 subfamily A member 75) | 1 | 91.7 | 73.1 |
| Or4a75 (olfactory receptor family 4 subfamily A member 75) | 2 | 107 | 73.3 |
| Or4a75 (olfactory receptor family 4 subfamily A member 75) | 3 | 56.3 | 87.4 |
| Pank3 (pantothenate kinase 3) | 1 | 95.5 | 81 |
| Litaf (LPS-induced TN factor) | 1 | 73.1 | 66 |
| Litaf (LPS-induced TN factor) | 2 | 73.6 | 97.3 |
| Litaf (LPS-induced TN factor) | 3 | 101 | 42.9 |
| Cnep1r1 (CTD nuclear envelope phosphatase 1 regulatory subunit 1) | 1 | 69.8 | 62.6 |
| Cnep1r1 (CTD nuclear envelope phosphatase 1 regulatory subunit 1) | 2 | 86.5 | 84.6 |
| Cnep1r1 (CTD nuclear envelope phosphatase 1 regulatory subunit 1) | 3 | 94.1 | 95.3 |
| Kpnb1 (karyopherin subunit beta 1) | 1 | 72.7 | 43.6 |
| Kpnb1 (karyopherin subunit beta 1) | 2 | 142 (active) | 51.8 |
| Kpnb1 (karyopherin subunit beta 1) | 3 | 83.2 | 26.5 |
| Pde4c (phosphodiesterase 4C, cAMP specific) | 1 | 89.9 | 74.7 |
| Pde4c (phosphodiesterase 4C, cAMP specific) | 2 | 67.9 | 38 |
| Pde4c (phosphodiesterase 4C, cAMP specific) | 3 | 41 | 60 |
| Or9g20 (olfactory receptor family 9 subfamily G member 20) | 1 | 129 (active) | 67.5 |
| Or9g20 (olfactory receptor family 9 subfamily G member 20) | 2 | 70.8 | 68.8 |
| Or9g20 (olfactory receptor family 9 subfamily G member 20) | 3 | 67.7 | 75.6 |
| Rprd1a (regulation of nuclear pre-mRNA domain containing 1A) | 1 | 46.4 | 36.6 |
| Rprd1a (regulation of nuclear pre-mRNA domain containing 1A) | 2 | 69.7 | 82.8 |
| Rprd1a (regulation of nuclear pre-mRNA domain containing 1A) | 3 | 97.4 | 109 |
| Vmn1r172 (vomeronasal 1 receptor 172) | 1 | 100 | 94.4 |
| Vmn1r172 (vomeronasal 1 receptor 172) | 2 | 49.5 | 55.1 |
| Vmn1r172 (vomeronasal 1 receptor 172) | 3 | 73.5 | 35.6 |
| Dcps (decapping enzyme, scavenger) | 1 | 68.6 | 72.1 |
| Dcps (decapping enzyme, scavenger) | 2 | 81.9 | 78 |
| Dcps (decapping enzyme, scavenger) | 3 | 28.9 | 47.5 |
| Ceacam12 (CEA cell adhesion molecule 12) | 1 | 91.1 | 74.9 |
| Ceacam12 (CEA cell adhesion molecule 12) | 2 | 85 | 70.2 |
| Ceacam12 (CEA cell adhesion molecule 12) | 3 | 80 | 63.2 |
| A130023I24Rik (RIKEN cDNA A130023I24 gene) | 1 | 62.1 | 59.7 |
| A130023I24Rik (RIKEN cDNA A130023I24 gene) | 2 | 79.9 | 67.6 |
| A130023I24Rik (RIKEN cDNA A130023I24 gene) | 3 | 78 | 95.8 |
| Mov10l1 (Mov10 like RISC complex RNA helicase 1) | 1 | 121 (active) | 70.1 |
| Mov10l1 (Mov10 like RISC complex RNA helicase 1) | 2 | 86.1 | 80.2 |
| Mov10l1 (Mov10 like RISC complex RNA helicase 1) | 3 | 56.1 | 71 |
